Measurements: US20260256792A1, “TREATMENT OF CHRONIC SPONTANEOUS URTICARIA BY ADMINISTERING (R)-2-[3-[4-AMINO-3-(2-FLUORO-4-PHENOXY-PHENYL)PYRAZOLO[3,4-D]PYRIMIDIN-1-YL]PIPERIDINE-1-CARBONYL]-4-METHYL-4-[4-(OXETAN-3-YL)PIPERAZIN-1-YL]PENT-2-ENENITRILE” (priority 2023, published 2026)
This continues a long series; more values of the same kind are listed elsewhere.

Test system: moderate-to-severe chronic spontaneous urticaria (CSU)
Test: Phase 2 CSU study: urticaria activity score over 7 days (UAS7)
Format: in vivo, human
Conditions: Omalizumab-Naïve
Excerpt: The study comprises a 12 week, randomized, double-blind, placebo-controlled, multi-center, dose-ranging efficacy and safety phase, followed by a 40 week open label extension (OLE) phase (see FIG. 1). The study consists of three phases and an optional OLE phase. […] Clinically, CSU is characterized by the spontaneous and recurrent appearance of pruritic hives. The proposed primary endpoints were the UAS7 at Week 12 in EU and EU reference countries and the ISS7 in the US. Regardless of where a participant was from, all assessments were the same. The UAS7 score is a composite score containing both the HSS7 and the ISS7. This allowed a global assessment of the two key components of urticaria: hives and itch. […] The UAS is a validated PRO measure. […] The daily UAS scores range from 0 to 6 point/day. […] Patients were to complete the UAS using the e-diary. […] The following secondary endpoints were to be analyzed using the same approach as for the primary endpoint: • Change from baseline in UAS7 at Week 4 • Change from baseline in UAS7 at Week 12 (for US and US reference countries) • Change from baseline in ISS7 at Week 12 (except US and US reference countries) • Change from baseline in HSS7 at Week 12 The following responder secondary endpoints were to be analyzed using the Cochran-Mantel-Haenszel test adjusted by region: • Proportion of participants with UAS7<6 at Week 12 • Proportion of participants with UAS7=0 at Week 12 Participants who received selected prohibited medications and/or rescue medications were to be considered as non-responders for time points after the medication usage. For other participants, all available data including those collected during the off-treatment period were to be used to determine the responder/non-responder status. Missing data were to be considered as non-responders.

[1] = Baseline BMI (kg/m^2) <25, 400 mg BID
[2] = Baseline BMI (kg/m^2) <25, 400 mg QPM
[3] = Baseline BMI (kg/m^2) <25, 400 mg TID
[4] = Baseline BMI (kg/m^2) ≥25-<30, 400 mg BID
[5] = Baseline BMI (kg/m^2) ≥25-<30, 400 mg QPM
[6] = Baseline BMI (kg/m^2) ≥25-<30, 400 mg TID
[7] = Baseline BMI (kg/m^2) ≥30, 400 mg BID
[8] = Baseline BMI (kg/m^2) ≥30, 400 mg QPM
[9] = Baseline BMI (kg/m^2) ≥30, 400 mg TID
[10] = Baseline weight (kg) <60, 400 mg BID
[11] = Baseline weight (kg) <60, 400 mg QPM
[12] = Baseline weight (kg) <60, 400 mg TID
[13] = Baseline weight (kg) <72.9 (Median), 400 mg BID
[14] = Baseline weight (kg) <72.9 (Median), 400 mg QPM
[15] = Baseline weight (kg) <72.9 (Median), 400 mg TID
[16] = Baseline weight (kg) ≥60-<90, 400 mg BID
[17] = Baseline weight (kg) ≥60-<90, 400 mg QPM
[18] = Baseline weight (kg) ≥60-<90, 400 mg TID
[19] = Baseline weight (kg) ≥72.9 (Median), 400 mg BID
[20] = Baseline weight (kg) ≥72.9 (Median), 400 mg QPM
[21] = Baseline weight (kg) ≥72.9 (Median), 400 mg TID
[22] = Baseline weight (kg) ≥90, 400 mg BID
[23] = Baseline weight (kg) ≥90, 400 mg QPM
[24] = Baseline weight (kg) ≥90, 400 mg TID

## CC(C)(C=C(C#N)C(=O)N1CCC[C@@H](n2nc(-c3ccc(Oc4ccccc4)cc3F)c3c(N)ncnc32)C1)N1CCN(C2COC2)CC1 [rilzabrutinib, (R)-2-[3-[4-amino-3-(2-fluoro-4-phenoxy-phenyl)pyrazolo[3,4-d]pyrimidin-1-yl]piperidine-1-carbonyl]-4-methyl-4-[4-(oxetan-3-yl)piperazin-1-yl]pent-2-enenitrile]
[1]
  Change from Baseline in UAS7 at Week 12: LS Mean (SE): −14.48 (2.43)
  Change from Baseline in UAS7 at Week 12: LS Mean Diff vs. placebo (95% CI): −5.83 (−12.83, 1.16)
  Change from Baseline in UAS7 at Week 12: Mean (SD): −14.44 (11.30)
[2]
  Change from Baseline in UAS7 at Week 12: LS Mean (SE): −6.27 (2.66)
  Change from Baseline in UAS7 at Week 12: LS Mean Diff vs. placebo (95% CI): 2.37 (−4.98, 9.73)
  Change from Baseline in UAS7 at Week 12: Mean (SD): −7.00 (7.22)
[3]
  Change from Baseline in UAS7 at Week 12: LS Mean (SE): −17.23 (3.19)
  Change from Baseline in UAS7 at Week 12: LS Mean Diff vs. placebo (95% CI): −8.58 (−16.69, −0.47)
  Change from Baseline in UAS7 at Week 12: Mean (SD): −17.02 (13.10)
[4]
  Change from Baseline in UAS7 at Week 12: LS Mean (SE): −11.34 (4.80)
  Change from Baseline in UAS7 at Week 12: LS Mean Diff vs. placebo (95% CI): −2.01 (−14.35, 10.33)
  Change from Baseline in UAS7 at Week 12: Mean (SD): −13.03 (16.22)
[5]
  Change from Baseline in UAS7 at Week 12: LS Mean (SE): −7.48 (3.95)
  Change from Baseline in UAS7 at Week 12: LS Mean Diff vs. placebo (95% CI): 1.85 (−9.71, 13.42)
  Change from Baseline in UAS7 at Week 12: Mean (SD): −10.92 (12.01)
[6]
  Change from Baseline in UAS7 at Week 12: LS Mean (SE): −14.99 (2.89)
  Change from Baseline in UAS7 at Week 12: LS Mean Diff vs. placebo (95% CI): −5.67 (−15.50, 4.16)
  Change from Baseline in UAS7 at Week 12: Mean (SD): −19.44 (10.56)
[7]
  Change from Baseline in UAS7 at Week 12: LS Mean (SE): −15.87 (4.21)
  Change from Baseline in UAS7 at Week 12: Mean (SD): −16.50 (13.23)
[8]
  Change from Baseline in UAS7 at Week 12: LS Mean (SE): −14.65 (3.89)
  Change from Baseline in UAS7 at Week 12: Mean (SD): −15.85 (8.40)
[9]
  Change from Baseline in UAS7 at Week 12: LS Mean (SE): −21.80 (5.17)
  Change from Baseline in UAS7 at Week 12: Mean (SD): −23.25 (10.60)
[10]
  Change from Baseline in UAS7 at Week 12: LS Mean (SE): −11.36 (3.92)
  Change from Baseline in UAS7 at Week 12: LS Mean Diff vs. placebo (95% CI): −3.35 (−13.61, 6.91)
  Change from Baseline in UAS7 at Week 12: Mean (SD): −10.00 (9.76)
[11]
  Change from Baseline in UAS7 at Week 12: LS Mean (SE): −6.74 (4.50)
  Change from Baseline in UAS7 at Week 12: Mean (SD): −7.82 (8.01)
[12]
  Change from Baseline in UAS7 at Week 12: LS Mean (SE): −19.90 (4.01)
  Change from Baseline in UAS7 at Week 12: LS Mean Diff vs. placebo (95% CI): −11.88 (−22.36, −1.40)
  Change from Baseline in UAS7 at Week 12: Mean (SD): −19.50 (14.84)
[13]
  Change from Baseline in UAS7 at Week 12: LS Mean (SE): −13.03 (2.58)
  Change from Baseline in UAS7 at Week 12: LS Mean Diff vs. placebo (95% CI): −2.19 (−9.21, 4.84)
[14]
  Change from Baseline in UAS7 at Week 12: LS Mean (SE): −7.76 (2.45)
  Change from Baseline in UAS7 at Week 12: LS Mean Diff vs. placebo (95% CI): 3.08 (−3.85, 10.01)
[15]
  Change from Baseline in UAS7 at Week 12: LS Mean (SE): −18.62 (2.85)
  Change from Baseline in UAS7 at Week 12: LS Mean Diff vs. placebo (95% CI): −7.78 (−15.19, −0.37)
[16]
  Change from Baseline in UAS7 at Week 12: LS Mean (SE): −13.31 (2.65)
  Change from Baseline in UAS7 at Week 12: LS Mean Diff vs. placebo (95% CI): −2.12 (−9.70, 5.46)
  Change from Baseline in UAS7 at Week 12: Mean (SD): −15.04 (13.16)
[17]
  Change from Baseline in UAS7 at Week 12: LS Mean (SE): −9.11 (2.26)
  Change from Baseline in UAS7 at Week 12: LS Mean Diff vs. placebo (95% CI): 2.08 (−5.04, 9.20)
[18]
  Change from Baseline in UAS7 at Week 12: LS Mean (SE): −15.74 (2.43)
  Change from Baseline in UAS7 at Week 12: LS Mean Diff vs. placebo (95% CI): −4.55 (−11.84, 2.73)
  Change from Baseline in UAS7 at Week 12: Mean (SD): −18.74 (10.60)
[19]
  Change from Baseline in UAS7 at Week 12: LS Mean (SE): −15.67 (3.01)
  Change from Baseline in UAS7 at Week 12: LS Mean Diff vs. placebo (95% CI): −7.75 (−16.17, 0.68)
  Change from Baseline in UAS7 at Week 12: Mean (SD): −16.91 (15.27)
[20]
  Change from Baseline in UAS7 at Week 12: LS Mean (SE): −11.30 (3.07)
  Change from Baseline in UAS7 at Week 12: LS Mean Diff vs. placebo (95% CI): −3.37 (−11.78, 5.05)
  Change from Baseline in UAS7 at Week 12: Mean (SD): −13.96 (10.98)
[21]
  Change from Baseline in UAS7 at Week 12: LS Mean (SE): −16.27 (2.71)
  Change from Baseline in UAS7 at Week 12: LS Mean Diff vs. placebo (95% CI): −8.35 (−16.31, −0.38)
  Change from Baseline in UAS7 at Week 12: Mean (SD): −17.48 (9.72)
[22]
  Change from Baseline in UAS7 at Week 12: LS Mean (SE): −20.74 (5.01)
  Change from Baseline in UAS7 at Week 12: LS Mean Diff vs. placebo (95% CI): −11.96 (−25.48, 1.56)
  Change from Baseline in UAS7 at Week 12: Mean (SD): −22.00 (9.00)
[23]
  Change from Baseline in UAS7 at Week 12: LS Mean (SE): −14.44 (7.38)
  Change from Baseline in UAS7 at Week 12: LS Mean Diff vs. placebo (95% CI): −5.66 (−22.88, 11.55)
  Change from Baseline in UAS7 at Week 12: Mean (SD): −16.67 (9.07)
[24]
  Change from Baseline in UAS7 at Week 12: LS Mean (SE): −20.81 (7.30)
  Change from Baseline in UAS7 at Week 12: LS Mean Diff vs. placebo (95% CI): −12.03 (−29.07, 5.01)
  Change from Baseline in UAS7 at Week 12: Mean (SD): −19.44 (9.03)
Gender Female, 400 mg BID
  Change from Baseline in UAS7 at Week 12: LS Mean (SE): −12.97 (2.46)
  Change from Baseline in UAS7 at Week 12: LS Mean Diff vs. placebo (95% CI): −1.57 (−8.27, 5.12)
Gender Female, 400 mg QPM
  Change from Baseline in UAS7 at Week 12: LS Mean (SE): −9.27 (2.22)
  Change from Baseline in UAS7 at Week 12: LS Mean Diff vs. placebo (95% CI): 2.13 (−4.34, 8.59)
Gender Female, 400 mg TID
  Change from Baseline in UAS7 at Week 12: LS Mean (SE): −18.51 (2.16)
  Change from Baseline in UAS7 at Week 12: LS Mean Diff vs. placebo (95% CI): −7.12 (−13.39, −0.85)
Gender Male, 400 mg BID
  Change from Baseline in UAS7 at Week 12: LS Mean Diff vs. placebo (95% CI): −9.97 (−19.70, −0.25)
Gender Male, 400 mg QPM
  Change from Baseline in UAS7 at Week 12: LS Mean Diff vs. placebo (95% CI): −2.15 (−12.83, 8.54)
Gender Male, 400 mg TID
  Change from Baseline in UAS7 at Week 12: LS Mean (SE): −11.21 (4.99)
  Change from Baseline in UAS7 at Week 12: LS Mean Diff vs. placebo (95% CI): −4.51 (−16.53, 7.51)
